Source: PubChem BioAssay AID504834 (National Center for Advancing Translational Sciences (NCATS), 2011)
In all, about 320,000 compounds went through this assay and about 22,000 (6.9%) were called active. Inconclusive means that the source gave no clear call. Such entries were picked first, then a sample of the others. The call rests on the fitted dose curve; in most records, active means well fitted inhibition curve with a large enough effect; inconclusive means small, poorly fitted or top-dose-only effect, or another doubt; inactive means no such curve, though single readings can be large or run the other way. Potencies of inconclusive entries are doubtful fits and often do not repeat.

test: Primary qHTS for delayed death inhibitors of the malarial parasite plastid, 96 hour incubation; settings: P. falciparum luciferase reporter growth; series mostly up to 28.7 µM; activity change, negative = inhibition: at the top concentration
Outline: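 Cell-based qHTS: luciferase-tagged P. falciparum in erythrocytes (2% hematocrit, 0.05% parasitemia final) incubated with compounds for 96 hours, 37 C, 5% CO2; luciferase detection reagent then added and luminescence measured.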
On the % scale 0 is the no-effect control and ±100 the full control effect; potency means the concentration at half of the fitted maximal effect.

Structure (SMILES) | Potency | activity change, negative = inhibition
CCOc1ccc(NC(=O)c2ccc(Cl)c(NC(=O)c3ccco3)c2)cc1 | inconclusive: 18.5 µM [inhibitor, single point] | 
Cc1nc2nc(CNC(=O)OC(C)(C)C)nn2c(C)c1CCC(=O)Nc1ccc2c(c1)OCO2 | inconclusive: 11.7 µM [inhibitor, single point] | 
O=C(NCc1cccs1)C1CC(=O)N(c2ccc(Cl)cc2)C1 (stereo not given) |  | inactive: 28.3%
O=C(CSc1cccc[n+]1[O-])c1ccccc1Br | inconclusive: 0.738 µM [inhibitor, full curve] | 
Cc1ccc(SC(C)C(=O)NC2CC2)cc1 (stereo not given) | active: 10.4 µM | 
CCC(=O)Nc1cccc(-c2cnc3ccccc3n2)c1 | inconclusive: 18.5 µM [inhibitor, single point] | 
Cc1ccc(-c2cc(C(F)(F)F)n3nc(C(=O)NCCCn4ccnc4)cc3n2)cc1C | inconclusive: 18.5 µM [inhibitor, single point] | 
O=C1CC(/C=C/c2ccccn2)=Nc2ccccc2N1 |  | inactive: 0%
O=C(CO/N=C1\CCCc2nonc21)Nc1ccc(Br)cc1 | inconclusive: 2.33 µM [inhibitor, single point] | 
O=C(Nc1nc2c(s1)CCCC2)C1CCCN1C(=O)c1cccs1 (stereo not given) |  | inactive: -17.9%
CCC(Sc1nc2ccccc2o1)C(=O)Nc1nnc(C)s1 (stereo not given) | inconclusive: 3.7 µM [inhibitor, partial curve, poor fit] | 
Nc1cc(C(=O)N2CCN(c3ccc([N+](=O)[O-])cc3)CC2)ccc1N1CC2CC(C1)c1cccc(=O)n1C2 (stereo not given) | inconclusive: 2.08 µM [inhibitor, full curve] | 
COC(=O)CSc1nc2c(cnn2-c2ccc(F)cc2)c(=O)[nH]1 |  | inactive: 51%
COCCNC(=O)c1c(N)n(CCCn2ccnc2)c2nc3ccccc3nc12 | inconclusive: 3.7 µM [inhibitor, single point] | 
CSc1ccccc1NC(=O)c1ccncc1 | inconclusive: 3.29 µM [inhibitor, partial curve] | 
O=C(Nc1ccccc1)N1CCc2ccccc21 |  | inactive: 5.49%
O=C(COc1ccc2c(-c3ccccc3)cc(=O)oc2c1)NCc1cccs1 | inconclusive: 18.5 µM [inhibitor, single point] | 
O=C(c1cccc(C(F)(F)F)c1)C1CCCN(Cc2cccc(OCCO)c2)C1 (stereo not given) | inconclusive: 11.7 µM [inhibitor, partial curve, poor fit] | 
Oc1cc2ccccc2nc1-c1ccccc1Cl | inconclusive: 10.4 µM [inhibitor, single point] | 
Cc1cnccc1CN(C)C(=O)C1CCC(=O)N(Cc2ccccc2F)C1 (stereo not given) | inconclusive: 3.29 µM [inhibitor, partial curve, poor fit] | 
CCOc1cc(/C=C2\SC(=N)N(c3nccs3)C2=O)ccc1OCCN1CCOCC1 | active: 4.15 µM | 
O=C(Nc1ccc(S(=O)(=O)NC2=NCCCCC2)cc1)c1ccc([N+](=O)[O-])s1 | active: 13.1 µM | 
C/C(=N\N=C1\NC(=O)C(CC(=O)Nc2ccc(Cl)cc2)S1)c1ccco1 (stereo not given) | inconclusive: 0.0037 µM [inhibitor, full curve, poor fit] | 

Structure (SMILES) | Potency | activity change, negative = inhibition
COc1ccc(NC(=O)CCC(=O)OCc2ccc([N+](=O)[O-])cc2)cc1 | inconclusive: 0.0033 µM [inhibitor, full curve, poor fit] | 
COc1ccccc1NC(=O)Nc1nn(C)c2cccc(OC)c12 | active: 11.7 µM | 
Cc1ccc(SCC(=O)Nc2ccc3c(c2)C(=O)N(C)C3=O)cc1 |  | inactive: 72.2%
COc1cc(CNCCSc2nnnn2C)cc(Br)c1OCc1ccccc1 |  | inactive: 1.59% [at 5.75 µM]
CS(=O)(=O)N1CC(C(=O)NC2CCCC2)Oc2ccc(Cl)cc21 (stereo not given) |  | inactive: 38.8%
Cc1ccccc1CNC(=O)C1CCC(=O)N(Cc2cccc(F)c2)C1 (stereo not given) | inconclusive: 13.1 µM [inhibitor, single point] | 
CCCCN(C)C1=Nc2cccc3cccc1c23 | inconclusive: 18.5 µM [inhibitor, single point] | 
CCOC(=O)C(NC(=O)c1cccc(Cl)c1)(OCc1ccccc1)C(F)(F)F (stereo not given) | inconclusive: 18.5 µM [inhibitor, single point] | 
O=C(Nc1sc(-c2ccccc2)cc1C(=O)O)c1ccccc1 |  | inactive: 258%
Clc1ccc(N/N=C/c2ccncc2)cc1Cl | active: 1.17 µM | 
CCOC(=O)N1CCN(C(=O)CSc2ccc(-c3cccnc3)nn2)CC1 | inconclusive: 2.62 µM [inhibitor, partial curve, poor fit] | 
CCSc1nnc(-c2cccnc2)n1Cc1ccco1 | inconclusive: 1.17 µM [inhibitor, full curve, poor fit] | 
O=C(c1ccc(-c2ccc([N+](=O)[O-])cc2Cl)o1)N1CCOCC1 |  | inactive: 9.78%
Cc1[nH]c(C)c(S(=O)(=O)N2CCc3ccccc32)c1C(=O)N1CCCCC1 | inconclusive: 18.5 µM [inhibitor, single point] | 
Cc1ccc(C)c(CNS(=O)(=O)c2c(C(=O)N3CCCC3)c(C)n(C)c2C)c1 | inconclusive: 16.5 µM [inhibitor, single point] | 
O=C(Nc1ccc(C(=O)O)cc1)/C(=C\c1ccc2c(c1)OCO2)NC(=O)c1ccccc1 | inconclusive: 10.4 µM [inhibitor, partial curve, poor fit] | 
CCOc1c(Cl)cc(C(=O)Nc2ccccc2C(=O)O)cc1Cl | inconclusive: 0.928 µM [inhibitor, partial curve, poor fit] | 
Cc1ccc(CNC(=O)N2CCN(S(=O)(=O)c3ccccc3)CC2)cc1 |  | inactive: 14%
Cn1cnnc1SCC(=O)c1c(N)n(Cc2ccccc2)c(=O)n(C)c1=O | inconclusive: 7.38 µM [inhibitor, partial curve, poor fit] | 
Cc1ccc2cc3c(NC(=O)CC(C)C)nn(C)c3nc2c1 | inconclusive: 16.5 µM [inhibitor, partial curve, poor fit] | 
CC(C)(C)C(=O)N1CCN(c2nc3ccc(Br)cc3s2)CC1 |  | inactive: 26.9%
Cc1ccc(NC2=CC(=O)CC(c3ccc(Cl)cc3)C2)cc1 (stereo not given) | inconclusive: 18.5 µM [inhibitor, single point] | 

By substructure: the compounds so far containing a Cl atom (ten)
Structure (SMILES) | Potency | activity change, negative = inhibition
CCOc1ccc(NC(=O)c2ccc(Cl)c(NC(=O)c3ccco3)c2)cc1 | inconclusive: 18.5 µM [inhibitor, single point] | 
O=C(NCc1cccs1)C1CC(=O)N(c2ccc(Cl)cc2)C1 (stereo not given) |  | inactive: 28.3%
Oc1cc2ccccc2nc1-c1ccccc1Cl | inconclusive: 10.4 µM [inhibitor, single point] | 
C/C(=N\N=C1\NC(=O)C(CC(=O)Nc2ccc(Cl)cc2)S1)c1ccco1 (stereo not given) | inconclusive: 0.0037 µM [inhibitor, full curve, poor fit] | 
CS(=O)(=O)N1CC(C(=O)NC2CCCC2)Oc2ccc(Cl)cc21 (stereo not given) |  | inactive: 38.8%
CCOC(=O)C(NC(=O)c1cccc(Cl)c1)(OCc1ccccc1)C(F)(F)F (stereo not given) | inconclusive: 18.5 µM [inhibitor, single point] | 
Clc1ccc(N/N=C/c2ccncc2)cc1Cl | active: 1.17 µM | 
O=C(c1ccc(-c2ccc([N+](=O)[O-])cc2Cl)o1)N1CCOCC1 |  | inactive: 9.78%
CCOc1c(Cl)cc(C(=O)Nc2ccccc2C(=O)O)cc1Cl | inconclusive: 0.928 µM [inhibitor, partial curve, poor fit] | 
Cc1ccc(NC2=CC(=O)CC(c3ccc(Cl)cc3)C2)cc1 (stereo not given) | inconclusive: 18.5 µM [inhibitor, single point] | 
